Positions count from the first letter of the chain named. No constants are given. Whether binding was seen depends on the method and setting. A result given as binding can be weak or reduced; the word gives no strength. Tags and fused reporters may be left off the sequences shown.
How the values were obtained:
Assay in all cases: two-hybrid
[1] = biological target: T1, Mtg16 F210A fused to LexA DNA-binding domain (UniProt O54972)
T1 sequence: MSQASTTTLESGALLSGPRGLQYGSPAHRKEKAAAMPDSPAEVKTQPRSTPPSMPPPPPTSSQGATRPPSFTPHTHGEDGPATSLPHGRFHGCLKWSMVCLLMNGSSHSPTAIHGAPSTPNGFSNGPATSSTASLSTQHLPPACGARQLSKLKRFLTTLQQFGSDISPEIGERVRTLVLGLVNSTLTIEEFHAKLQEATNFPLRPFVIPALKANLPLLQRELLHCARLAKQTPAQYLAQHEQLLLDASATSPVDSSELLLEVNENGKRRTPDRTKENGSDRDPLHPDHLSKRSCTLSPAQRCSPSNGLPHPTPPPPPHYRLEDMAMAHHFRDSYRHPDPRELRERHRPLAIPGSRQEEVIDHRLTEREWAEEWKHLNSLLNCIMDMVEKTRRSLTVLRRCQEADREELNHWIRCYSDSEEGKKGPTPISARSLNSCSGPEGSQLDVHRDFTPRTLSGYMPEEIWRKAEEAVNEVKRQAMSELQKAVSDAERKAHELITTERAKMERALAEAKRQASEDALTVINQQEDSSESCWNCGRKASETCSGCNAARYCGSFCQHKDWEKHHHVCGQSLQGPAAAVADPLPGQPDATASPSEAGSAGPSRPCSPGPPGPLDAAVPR

[2] = biological target: T2, Mtg16 P209T fused to LexA DNA-binding domain (UniProt O54972)
T2 sequence: T1 sequence with P209T, A210F

[3] = biological target: T3, Mtg16 wild type fused to LexA DNA-binding domain (UniProt O54972)
T3 sequence: T1 sequence with A210F

binding [1]: binds
binding [2]: binds
binding [3]: binds
Substance: Zbtb38-Gal4-AD

From paper doi:10.1101/2020.07.24.220525
